Reference: the supplement of paper PMC8616043
Where a name gives a salt, the structure may show the parent alone. Some of the results follow. This data set is noisy: repeats of one test often differ as much as different tests do.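 PR50, a 50-repeat proline–arginine dipeptide protein from C9ORF72 (ALS/FTD), was expressed by transfection in U-2 OS human cells stably carrying a GFP sensor with import and classical export signals. Per-well nuclear-minus-cytoplasm GFP, normalized between in-plate DMSO (low) and PR-only (high), was scored versus other test wells; compounds well below zero were hits reversing PR.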

Test system: U-2 OS NCT-C biosensor cells expressing PR50
Experiment: Z-score of normalised NCT-C biosensor translocation index in PR50-expressing cells; higher = more nuclear biosensor (more disrupted nuclear export)
Conditions: 3 µM; 24 h

**Q.** For `CC(=O)Oc1ccc(/C=C/c2cc(OC(C)=O)cc(OC(C)=O)c2)cc1` [Triacetylresveratrol], which Z-score is on record?
**A.** inactive: 0.134

**Q.** How did the Z-score turn out when `C[N+](C)(C)CC#CCOC(=O)Nc1cccc(Cl)c1` was run?
**A.** inactive: -0.391

**Q.** Which Z-score does the source give for `CC[C@@H](C)C(=O)O[C@H]1[C@H](O)[C@H]2[C@@H](CN3C[C@@H](C)CC[C@H]3[C@@]2(C)O)[C@@H]2C[C@]34O[C@]5(O)[C@@H](OC(=O)[C@](C)(O)[C@@H](C)O)CC[C@@]3(C)[C@@H]5[C@@H](OC(C)=O)[C@@H](OC(C)=O)[C@H]4[C@@]21O` (stereo in doubt) [Protoveratrine B] here?
**A.** inactive: 0.806

**Q.** `C[C@@H]1C[C@H]2CC[C@H](O2)[C@H](C)C(=O)O[C@@H](C)C[C@@H]2CC[C@@H](O2)[C@@H](C)C(=O)O[C@H](C)C[C@H]2CC[C@@H](O2)[C@H](C)C(=O)O[C@@H](C)C[C@@H]2CC[C@@H](O2)[C@@H](C)C(=O)O1` [Nonactin] was tested. Which Z-score did it give?
**A.** inactive: -0.568

**Q.** With `CCCN1C[C@H](CSC)C[C@@H]2c3cccc4[nH]cc(c34)C[C@H]21` [Pergolide methanesulfonate] as the compound, how does the Z-score read?
**A.** inactive: -0.225

**Q.** How did the Z-score turn out when `CCCCc1ccc(C(=O)O)nc1` [Fusaric acid] was run?
**A.** inactive: -0.429

**Q.** With `N.N.[Cl][Pt][Cl]` [Cisplatin] as the compound, how does the Z-score read?
**A.** inactive: 0.323

**Q.** How did the Z-score turn out when `COc1ccc2[nH]cc(CCN)c2c1` [O-Methylserotonin hydrochloride] was run?
**A.** inactive: -0.628

**Q.** With `CCC12C=CCN3CC[C@@]4(c5ccc(OC)cc5N(C)[C@H]4[C@@](O)(C(=O)OC)[C@@H]1OC(C)=O)[C@@H]32` (stereo not given in full) [Vindoline] as the compound, how does the Z-score read?
**A.** inactive: -0.144

**Q.** With `Cc1ncc(CNC(=O)N(CCCl)N=O)c(N)n1` [Nimustine hydrochloride] as the compound, how does the Z-score read?
**A.** inactive: -0.361

**Q.** `CN(C)Cc1c[nH]c2ccccc12` [Gramine] was tested. Which Z-score did it give?
**A.** inactive: -1.08

**Q.** For `C[N+]1(C)CCOC(O)(c2ccc(-c3ccc(C4(O)C[N+](C)(C)CCO4)cc3)cc2)C1` (stereo not given) [Hemicholinium-3], which Z-score is on record?
**A.** inactive: -0.806

**Q.** With `Nc1ccncc1` [Dalfampridine (4-Aminopyridine)] as the compound, how does the Z-score read?
**A.** inactive: -0.0275

**Q.** `Nc1ccncc1` [4-aminopyridine] was tested. Which Z-score did it give?
**A.** inactive: 0.186

**Q.** Which Z-score does the source give for `OC[C@H]1O[C@@H](n2cnc3cc(Cl)c(Cl)cc32)[C@H](O)[C@@H]1O` [5,6-  Dichlorobenzimida zole riboside] here?
**A.** inactive: 1.61

**Q.** With `CCCCCCCCCCCCCC(=O)O[C@@H]1[C@@H](C)[C@@]2(O)[C@@H](C=C(CO)C[C@]3(O)C(=O)C(C)=C[C@@H]23)[C@@H]2C(C)(C)[C@]12OC(C)=O` [Phorbol 12-myristate 13-acetate] as the compound, how does the Z-score read?
**A.** inactive: 1.23

**Q.** With `CCCCCCCCCCCCCC(=O)O[C@@H]1[C@@H](C)[C@@]2(O)[C@@H](C=C(CO)C[C@]3(O)C(=O)C(C)=C[C@@H]23)[C@@H]2C(C)(C)[C@]12OC(C)=O` [Phorbol 12-  myristate 13- acetate] as the compound, how does the Z-score read?
**A.** inactive: 2.51

**Q.** `COc1ccc(C(=O)N2CCCC2=O)cc1` [Aniracetam] was tested. Which Z-score did it give?
**A.** inactive: 0.624

**Q.** How did the Z-score turn out when `O=C(O)CCCc1ccc(N(CCCl)CCCl)cc1` [Chlorambucil] was run?
**A.** inactive: 1.01

**Q.** With `CC[C@@H](C(N)=O)N1CCCC1=O` [Levetiracetam] as the compound, how does the Z-score read?
**A.** inactive: -0.518

**Q.** Which Z-score does the source give for `CN1CCC(c2c[nH]c3ccc(O)cc23)CC1` here?
**A.** inactive: 2.96

**Q.** `CC(C)[C@@]1(NC(=O)[C@@H]2C[C@@H]3c4cccc5[nH]cc(c45)C[C@H]3N(C)C2)O[C@@]2(O)[C@@H]3CCCN3C(=O)[C@H](Cc3ccccc3)N2C1=O` [Dihydroergocristine mesylate] was tested. Which Z-score did it give?
**A.** inactive: -0.902

**Q.** `O=C1C=C2C=C[C@@H]3C[C@@]2(O1)[C@H]1CCCCN31` [Securinine] was tested. Which Z-score did it give?
**A.** inactive: -0.44

**Q.** `CC(=O)C1=C(O)[C@@H]2[C@H]3c4c[nH]c5cccc(c45)C[C@H]3C(C)(C)N2C1=O` [Cyclopiazonic acid] was tested. Which Z-score did it give?
**A.** inactive: -0.868

**Q.** `CC(N)Cc1c[nH]c2ccc(OCc3cccs3)cc12` (stereo not given) was tested. Which Z-score did it give?
**A.** inactive: 0.0606

**Q.** For `COc1cc([C@@H]2c3cc4c(cc3[C@H](O)[C@H]3COC(=O)[C@@H]23)OCO4)cc(OC)c1OC` [Picropodophyllin], which Z-score is on record?
**A.** inactive: 0.0952

**Q.** Which Z-score does the source give for `C/C=C(/C)C(=O)O[C@H]1CC[C@@]2(C)[C@@H]3CC[C@H]4[C@]5(O)C[C@H](O)[C@@]6(O)[C@@H](CN7C[C@@H](C)CC[C@H]7[C@@]6(C)O)[C@]5(O)C[C@@]42O[C@]13O` [Cevadine] here?
**A.** inactive: -0.545

**Q.** For `O[C@H]1[C@H]2[C@H](O)CCCN2C[C@H]1O` [Swainsonine], which Z-score is on record?
**A.** inactive: -0.391

**Q.** `NC(=O)CN1CC(O)CC1=O` (stereo not given) [Oxiracetam] was tested. Which Z-score did it give?
**A.** inactive: 1.45

**Q.** `CC(C)[C@@]1(O)[C@@H](OC(=O)c2ccc[nH]2)[C@@]2(O)[C@@]3(C)C[C@]4(O)O[C@@]5([C@H](O)[C@@H](C)CC[C@]35O)[C@@]2(O)[C@@]14C` [Ryanodine] was tested. Which Z-score did it give?
**A.** inactive: -1.21

**Q.** How did the Z-score turn out when `CC(N[C@H]1C[C@@H]1c1ccccc1)c1ccc2c(c1)OCCO2` (stereo not given in full) was run?
**A.** active: -2.21

**Q.** For `NC(=O)c1ccc(OCC(O)CN2CC=C(c3ccc(F)cc3)CC2)cc1` (stereo not given), which Z-score is on record?
**A.** inactive: 0.707

**Q.** For `C[N+](C)(C)CC#CCN1CCCC1=O` [Oxotremorine methiodide], which Z-score is on record?
**A.** inactive: 0.509

**Q.** For `COc1ccc2c(c1OC)C(=O)O[C@H]2C1c2cc3c(cc2CCN1C)OCO3` (stereo partly drawn) [D-β-Hydrastine], which Z-score is on record?
**A.** inactive: 0.432

**Q.** `C[N+]1(C)[C@@H]2C[C@@H](OC(=O)[C@H](CO)c3ccccc3)C[C@H]1[C@@H]1O[C@@H]12` [(-)-Scopolamine methyl bromide] was tested. Which Z-score did it give?
**A.** inactive: -0.892

**Q.** `C[C@@H]1OC(=O)[C@H]2C[C@H]3CCCC[C@@H]3[C@@H](/C=C/[C@H]3CCC[C@H](C)N3C)[C@@H]12` [Himbacine] was tested. Which Z-score did it give?
**A.** inactive: 0.272

**Q.** Which Z-score does the source give for `CCn1cc(C(=O)O)c(=O)c2cc3c(cc21)OCO3` [Oxolinic acid] here?
**A.** inactive: -0.111

**Q.** For `CN(C(=O)Cc1ccc(Cl)c(Cl)c1)C(CN1CCCC1)c1cccc(OCC(=O)O)c1` (stereo not given) [ICI 204,448  hydrochloride], which Z-score is on record?
**A.** inactive: -0.426

**Q.** Which Z-score does the source give for `NCCc1ccc(O)cc1` [4-Hydroxy phenethylamine HCl] here?
**A.** inactive: -0.409

**Q.** Which Z-score does the source give for `CCCN1CCC[C@H](c2cccc(O)c2)C1` [R(+)-3PPP  hydrochloride] here?
**A.** inactive: -1.49

**Q.** `CC[C@@]1([C@@H]2O[C@@H]([C@H]3O[C@@](O)(CO)[C@H](C)C[C@@H]3C)C[C@@H]2C)CC[C@H]([C@]2(C)CC[C@]3(C[C@H](O)[C@@H](C)[C@@H]([C@@H](C)[C@@H](OC)[C@H](C)C(=O)O)O3)O2)O1` [Monensin] was tested. Which Z-score did it give?
**A.** inactive: -0.156

**Q.** How did the Z-score turn out when `CCN(C)C(=O)Oc1cccc([C@H](C)N(C)C)c1` [Rivastigmine Tartrate] was run?
**A.** inactive: -0.323

**Q.** `CCN(C)C(=O)Oc1cccc([C@H](C)N(C)C)c1` [Rivastigmine tartrate] was tested. Which Z-score did it give?
**A.** inactive: -0.107

**Q.** How did the Z-score turn out when `CCOC(=O)c1ccc(-c2ccc(OC(=O)N(C)Cc3cccc(-c4ccncc4)c3)cc2)cc1` was run?
**A.** inactive: 3.05

**Q.** `CC1=C[C@]23C(=O)[C@@H](C=C(CO)[C@@H](O)[C@]2(O)[C@H]1O)[C@H]1[C@@H](C[C@H]3C)C1(C)C` [Ingenol] was tested. Which Z-score did it give?
**A.** inactive: 0.057

**Q.** For `C[N+]1(C)CCN(c2ccccc2)CC1` [1,1-Dimethyl-4- phenyl- piperazinium iodide], which Z-score is on record?
**A.** inactive: 0.499

**Q.** With `COc1ccc2c3c([nH]c2c1)C(C)=NCC3` [Harmaline] as the compound, how does the Z-score read?
**A.** inactive: 0.226

**Q.** Which Z-score does the source give for `C[C@@H](N)Cc1cnc[nH]1` [Histamine, R(-)- alpha-methyl-, dihydrochloride] here?
**A.** inactive: 0.0385

**Q.** Which Z-score does the source give for `NCC(O)c1ccc(O)cc1` (racemic) [(±)-Octopamine hydrochloride] here?
**A.** inactive: 0.599

**Q.** `C[N+]1([O-])[C@@H]2CC[C@H]1C[C@@H](OC(=O)C(CO)c1ccccc1)C2` (stereo not given in full) [Atropine-N-oxide·HCl] was tested. Which Z-score did it give?
**A.** inactive: 0.573

**Q.** For `C=CCc1cc(OC)c2c(c1)OCO2` [Myristicin], which Z-score is on record?
**A.** inactive: -0.24

**Q.** With `COc1ccc(C(=O)OC2CC3CCC(C2)N3C)cc1OC` (stereo not given) [Convolvamine] as the compound, how does the Z-score read?
**A.** inactive: 0.284

**Q.** `COc1ccc2c(c[n+](C)c3c4cc5c(cc4ccc23)OCO5)c1OC` [Chelerythrine] was tested. Which Z-score did it give?
**A.** inactive: -0.922

**Q.** `CNc1ccc2oc(C[C@H]3O[C@@]4(CC[C@H]3C)O[C@H]([C@H](C)C(=O)c3ccc[nH]3)[C@H](C)C[C@H]4C)nc2c1C(=O)O` [Calcimycin] was tested. Which Z-score did it give?
**A.** inactive: 0.00806

**Q.** Which Z-score does the source give for `c1ccc2c(c1)[I+]c1ccccc1-2` [Diphenylene iodonium chloride] here?
**A.** inactive: -0.0174

**Q.** Which Z-score does the source give for `CCN1C[C@]2(COC)[C@H](O)C[C@H](OC)[C@@]34[C@@H]5C[C@@]6(O)[C@H](OC(=O)c7ccccc7)[C@@H]5[C@@](OC(C)=O)([C@@H]([C@H](OC)[C@H]23)[C@@H]14)[C@@H](O)[C@@H]6OC` [Aconitine] here?
**A.** inactive: -0.182

**Q.** Which Z-score does the source give for `CCN1C[C@]2(OC(=O)c3ccccc3NC(C)=O)CC[C@H](OC)[C@@]34[C@@H]2C[C@@H]([C@@H]13)[C@@]1(O)C[C@H](OC)[C@H]2C[C@@H]4[C@]1(O)[C@H]2OC` [Lappaconitine] here?
**A.** inactive: -0.887

**Q.** `CC1=C2[C@H]3OC(=O)[C@@H](C)[C@@H]3CC[C@@]2(C)C=CC1=O` [Santonin] was tested. Which Z-score did it give?
**A.** inactive: -0.373

**Q.** Which Z-score does the source give for `C/C=C1\C[C@@H](C)[C@](O)(CO)C(=O)OCC2=CCN3CC[C@@H](OC1=O)[C@@H]23` [Retrorsine] here?
**A.** inactive: -0.628

**Q.** `Cc1c([C@H](C)[C@@H]2NC[C@@H](C)C[C@H]2O)ccc2c1C[C@H]1[C@H]2CC=C2C[C@@H](O)CC[C@@]21C` [Veratramine] was tested. Which Z-score did it give?
**A.** inactive: -0.35
